PubChem BioAssay AID504834 (National Center for Advancing Translational Sciences (NCATS), 2011)
The campaign covered roughly 320,000 compounds. About 22,000 (6.9%) were called active. Inconclusive results, whose numbers are uncertain, are shown with a selection of clear calls. Calls follow the shape of the dose curve; as a rule, active = well fitted inhibition curve with a large enough effect; inconclusive = small, poorly fitted or top-dose-only effect, or another doubt; inactive = no such curve, though single readings can be large or run the other way. Potencies of inconclusive entries are doubtful fits and often do not repeat.
% is scaled to controls: 0 for no effect and ±100 for the full control effect; potency is read from the fitted curve at half-maximal effect.

Test: Primary qHTS for delayed death inhibitors of the malarial parasite plastid, 96 hour incubation
Conditions: P. falciparum luciferase reporter growth; series mostly up to 28.7 µM
Summary of the method: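 Delayed-death screen, second-generation endpoint: infected erythrocytes, 2% hematocrit, 0.05% parasitemia final; 96 hours at 37 C, 5% CO2; luciferase detection reagent; luminescence decrease equals reduced growth.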
For `O=C1C=C(c2ccccc2)OC2(CCCC2)O1`, the Potency was inconclusive: 18.5 µM [inhibitor, single point].
In the case of `O=C1CCCC2=C1C(c1ccccc1)C1=C(CCCC1=O)O2`, the Potency is reported as inconclusive: 11.7 µM [inhibitor, partial curve].
For `COc1cc(NC(=O)C2CCCN(c3ncnc4c3nc3n4CCCCC3)C2)cc(OC)c1OC` (configuration not stated), the Potency was active: 13.1 µM.
For `O=C(O)c1ccccc1-c1ccccc1C(=O)Nc1ccccc1Br`, the Potency was “inactive”.
With `COCCCNC(=O)CN1CCN(Cc2ccc(Cl)cc2)C1=O` the Potency was inconclusive: 13.1 µM [inhibitor, partial curve, poor fit].
In the case of `O=C(Nc1sc2c(c1-c1nc3ccccc3[nH]1)CCCC2)C1CC1`, the Potency is reported as inconclusive: 16.5 µM [inhibitor, single point].
In the case of `Cc1cccc(NC(=O)CN(C)C(=O)/C=C/c2ccccc2)c1C`, the Potency is reported as “inactive”.
For `CCOc1ccccc1C(=O)N(CN1CCCC1=O)c1cccc(Cl)c1`, the Potency was “inactive”.
For `OCCNc1ncnc2ccc(Br)cc12`, the Potency was inconclusive: 18.5 µM [inhibitor, single point].
In the case of `CCCn1c(CN2CCN(c3cccc(Cl)c3)CC2)nc2c1c(=O)n(C)c(=O)n2C`, the Potency is reported as “inactive”.
In the case of `CCNC(=O)COC(=O)c1cc(-c2ccco2)nc2ccccc12`, the Potency is reported as “inactive”.
In the case of `Cc1ccc(NC(=O)/C=C/c2ccc3c(c2)OCO3)nc1`, the Potency is reported as inconclusive: 18.5 µM [inhibitor, single point].
For `COC(=O)CCC(=O)Nc1ccc(NC(C)=O)cc1`, the Potency was inconclusive: 7.38 µM [inhibitor, partial curve, poor fit].
In the case of `O=c1[nH]c(C2CCN(S(=O)(=O)c3ccc(S(=O)(=O)NC4CC4)cc3)CC2)nc2c1nnn2Cc1cccc(F)c1`, the Potency is reported as inconclusive: 18.5 µM [inhibitor, single point].
For `O=[N+]([O-])c1cc(S(=O)(=O)C(F)(F)F)ccc1N1CCN(c2ccccc2)CC1`, the Potency was inconclusive: 9.28 µM [inhibitor, partial curve].
With `Cc1cccc(NC(=S)Nc2ccccn2)c1` the Potency was “inactive”.
With `Cc1sc2nc(CN3CCOCC3)nc(N3CCC(C(N)=O)CC3)c2c1C` the Potency was inconclusive: 18.5 µM [inhibitor, single point].
With `O=C(N/N=C/c1ccc(OC(F)F)cc1)c1ccc(Br)cc1` the Potency was “inactive”.
For `Cc1cc(C)n2cc(CSc3nnc(-c4ccccc4)o3)nc2n1`, the Potency was inconclusive: 0.037 µM [inhibitor, full curve, poor fit].
With `O=C(O)C1CC=CCC1C(=O)N1CCN(c2nc(-c3ccccc3Cl)c3cc(Br)ccc3n2)CC1` (configuration not stated) the Potency was inconclusive: 18.5 µM [inhibitor, partial curve, poor fit].
For `COc1ccccc1-c1cc(-c2ccc(C)cc2)nc(SCc2nnc(-c3ccccc3)o2)c1C#N`, the Potency was “inactive”.
In the case of `COc1ccc(CCN=C(C)c2cc(C)c(C)cc2O)cc1OC`, the Potency is reported as “inactive”.
With `COc1ccc(OC)c(S(=O)(=O)N2CCCC2C(=O)N2CCc3ccccc3C2)c1` (configuration not stated) the Potency was “inactive”.
For `O=c1[nH]c2cc(Cl)c([N+](=O)[O-])nc2[nH]1`, the Potency was inconclusive: 18.5 µM [inhibitor, single point].
For `Cc1ccc(NS(=O)(=O)c2cccc(C(=O)NCC(c3ccco3)N3CCCC3)c2)cc1` (configuration not stated), the Potency was inconclusive: 11.7 µM [inhibitor, partial curve, poor fit].
With `c1ccc(CNc2nc(-c3cccs3)nc3ccccc23)cc1` the Potency was inconclusive: 18.5 µM [inhibitor, single point].
In the case of `Clc1ccc(Cn2c(/C=C/c3ccco3)nc3ccccc32)cc1`, the Potency is reported as inconclusive: 10.4 µM [inhibitor, single point].
For `O=S(=O)(NCC1CN(S(=O)(=O)c2c(F)cccc2F)C1)c1ccc2c(c1)OCCO2`, the Potency was “inactive”.
With `Cc1ccccc1-c1nc(CS(=O)CC(=O)NC2CC2)c(C)o1` (configuration not stated) the Potency was “inactive”.
In the case of `O=C(COc1ccccc1[N+](=O)[O-])N(Cc1cccc(Br)c1)C1CCS(=O)(=O)C1` (configuration not stated), the Potency is reported as inconclusive: 18.5 µM [inhibitor, single point].
With `O=C(O)C1CCCN1S(=O)(=O)c1cc(Cl)ccc1Cl` (configuration not stated) the Potency was inconclusive: 9.28 µM [inhibitor, partial curve, poor fit].
In the case of `Cc1nc(-c2cccc(NS(C)(=O)=O)c2)cs1`, the Potency is reported as “inactive”.
With `Cc1c(CC(=O)N[C@@H](C)C(=O)O)c(=O)oc2cc3c(cc12)CCC(C)(C)O3` the Potency was “inactive”.
For `Cc1ccc(OCC(=O)N2CCN(S(=O)(=O)c3ccccc3[N+](=O)[O-])CC2)cc1`, the activity change, negative = inhibition was inactive: 30.2% [at 5.75 µM].
For `COc1cc(/C=C2\SC(=S)N(NS(=O)(=O)c3ccc(C)cc3)C2=O)ccc1O`, the Potency was “inactive”.
For `O=C(Nc1ccc(C(F)(F)F)cc1)c1cc(-c2cccnc2)nc2ccc(Br)cc12`, the Potency was inconclusive: 0.329 µM [inhibitor, full curve].
With `CSc1ccccc1NC(=O)COc1ccc(Cl)cc1` the Potency was inconclusive: 18.5 µM [inhibitor, single point].
For `COCc1ccc([C@@H]2C[C@H]3CN(Cc4cccc(Cl)c4)C(=O)[C@]34CCCN24)o1`, the Potency was “inactive”.
For `CC(/C=N/NC(=O)c1cccs1)=C\c1ccco1`, the Potency was inconclusive: 8.28 µM [inhibitor, partial curve].
In the case of `COc1ccc(C(=O)Oc2cccnc2)cc1`, the Potency is reported as “inactive”.
With `CCOc1ccccc1NC(=S)NC(=O)C1CCCCC1` the Potency was inconclusive: 10.4 µM [inhibitor, single point].
With `N#C/C(=C\c1ccc(O)c(O)c1)C(=O)Nc1cccc2ncccc12` the Potency was “inactive”.
With `O=C(CSc1n[nH]c(-c2ccncc2)n1)Nc1ccccc1` the Potency was inconclusive: 0.0074 µM [inhibitor, full curve, poor fit].
For `Cc1cc(Cn2ccnc2)c(C)c([N+](=O)[O-])c1Cn1ccnc1`, the Potency was inconclusive: 8.28 µM [inhibitor, partial curve, poor fit].
With `CC(C)Sc1ccc([N+](=O)[O-])cc1C(=O)Nc1ccncc1` the Potency was active: 1.17 µM.
In the case of `COc1ccc2cnn(-c3ccccc3C)c(=O)c2c1OC`, the Potency is reported as inconclusive: 1.31 µM [inhibitor, partial curve, poor fit].
For `Cc1cc(C(=O)Nc2sc3c(c2C#N)CCC(C(C)(C)C)C3)no1` (configuration not stated), the Potency was active: 10.4 µM.
